The whole screen tested about 290,000 compounds, of which about 570 (0.2%) were called active. This list was built around the results that the source calls inconclusive (neither active nor inactive); the mix of calls is not that of the screen. No stated cut-off is given here; in the data, active means inhibition mostly above about 51% (no sharp cut-off); inconclusive means no clear call, values can overlap the other calls; inactive means mostly below about 53%.
The compounds below were run against Voltage-dependent N-type calcium channel subunit alpha-1B (Homo sapiens) (UniProt Q00975) (assay: disruptors of CaV2.2 binding to Mint1 – biochemical, HTRF (AID 2073)). Conditions: HTRF protein-protein interaction, Mint1-CaV2.2; at 20 µM; active compounds read high.

Sequences of proteins named here, by UniProt entry; tags and fusion partners are left off.
UniProt Q00975, whole entry, looked up: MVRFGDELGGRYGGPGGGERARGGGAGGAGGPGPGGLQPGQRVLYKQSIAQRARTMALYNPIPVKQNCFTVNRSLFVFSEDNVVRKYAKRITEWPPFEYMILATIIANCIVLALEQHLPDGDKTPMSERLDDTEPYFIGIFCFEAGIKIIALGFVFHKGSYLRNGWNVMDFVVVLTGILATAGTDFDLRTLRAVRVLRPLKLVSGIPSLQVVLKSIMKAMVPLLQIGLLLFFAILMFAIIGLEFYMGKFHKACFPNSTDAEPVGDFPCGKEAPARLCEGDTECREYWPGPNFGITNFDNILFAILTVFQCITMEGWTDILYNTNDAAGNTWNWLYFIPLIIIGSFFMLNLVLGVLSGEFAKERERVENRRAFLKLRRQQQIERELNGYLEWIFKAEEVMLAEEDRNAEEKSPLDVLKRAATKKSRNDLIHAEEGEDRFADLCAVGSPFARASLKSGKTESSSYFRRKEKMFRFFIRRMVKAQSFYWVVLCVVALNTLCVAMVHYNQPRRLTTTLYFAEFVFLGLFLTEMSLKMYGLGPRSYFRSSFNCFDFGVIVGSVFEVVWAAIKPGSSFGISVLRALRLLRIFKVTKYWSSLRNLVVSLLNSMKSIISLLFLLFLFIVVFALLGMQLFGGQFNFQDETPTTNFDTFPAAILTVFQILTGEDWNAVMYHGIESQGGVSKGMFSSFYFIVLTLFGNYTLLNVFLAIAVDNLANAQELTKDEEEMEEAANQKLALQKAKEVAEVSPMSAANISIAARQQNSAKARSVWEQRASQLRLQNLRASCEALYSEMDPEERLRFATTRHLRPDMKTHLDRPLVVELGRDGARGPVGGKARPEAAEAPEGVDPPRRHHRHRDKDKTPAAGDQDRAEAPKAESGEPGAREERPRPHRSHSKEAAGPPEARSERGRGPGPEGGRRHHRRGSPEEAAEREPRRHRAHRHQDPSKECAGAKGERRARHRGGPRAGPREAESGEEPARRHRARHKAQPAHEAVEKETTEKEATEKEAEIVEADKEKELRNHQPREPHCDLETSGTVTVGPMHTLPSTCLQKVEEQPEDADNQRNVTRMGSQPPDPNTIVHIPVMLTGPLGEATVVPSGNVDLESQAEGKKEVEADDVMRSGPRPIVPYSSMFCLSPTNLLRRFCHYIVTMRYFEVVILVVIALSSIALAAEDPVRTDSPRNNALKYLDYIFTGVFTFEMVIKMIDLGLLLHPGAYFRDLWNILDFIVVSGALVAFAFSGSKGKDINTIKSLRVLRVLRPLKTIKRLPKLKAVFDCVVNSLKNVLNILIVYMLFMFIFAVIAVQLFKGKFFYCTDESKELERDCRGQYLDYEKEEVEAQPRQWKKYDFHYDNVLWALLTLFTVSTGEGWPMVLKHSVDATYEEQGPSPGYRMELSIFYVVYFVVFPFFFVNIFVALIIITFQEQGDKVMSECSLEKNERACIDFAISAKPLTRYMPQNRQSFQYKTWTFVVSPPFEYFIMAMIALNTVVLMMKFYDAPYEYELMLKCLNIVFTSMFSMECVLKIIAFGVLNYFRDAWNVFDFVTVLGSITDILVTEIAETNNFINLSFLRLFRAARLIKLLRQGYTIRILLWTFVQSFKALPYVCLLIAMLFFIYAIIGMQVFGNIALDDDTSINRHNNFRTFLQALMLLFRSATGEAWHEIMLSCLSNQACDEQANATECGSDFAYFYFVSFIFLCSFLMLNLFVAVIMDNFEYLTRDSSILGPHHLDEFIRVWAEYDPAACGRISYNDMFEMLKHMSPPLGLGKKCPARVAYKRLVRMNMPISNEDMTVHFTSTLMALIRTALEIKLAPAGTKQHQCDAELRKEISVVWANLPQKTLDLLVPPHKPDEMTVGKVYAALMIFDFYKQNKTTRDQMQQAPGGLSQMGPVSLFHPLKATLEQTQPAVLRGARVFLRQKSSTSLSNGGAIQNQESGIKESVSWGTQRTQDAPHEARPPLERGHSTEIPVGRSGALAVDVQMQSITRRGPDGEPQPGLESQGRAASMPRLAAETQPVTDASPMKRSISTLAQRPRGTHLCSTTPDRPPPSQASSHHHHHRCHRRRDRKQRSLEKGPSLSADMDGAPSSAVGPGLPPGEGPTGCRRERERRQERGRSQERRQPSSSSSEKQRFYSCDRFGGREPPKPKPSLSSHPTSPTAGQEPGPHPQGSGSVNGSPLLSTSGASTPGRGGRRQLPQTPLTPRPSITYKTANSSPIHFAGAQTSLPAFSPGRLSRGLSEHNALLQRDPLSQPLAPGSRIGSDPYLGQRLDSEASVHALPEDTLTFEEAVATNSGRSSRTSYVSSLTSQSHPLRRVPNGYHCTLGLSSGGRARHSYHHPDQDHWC

inhibition, active:
NS(=O)(=O)c1ccc(NC(=O)COC(=O)c2cnccn2)cc1 51.2%
CCOC(=O)c1cc2c(=O)n3ccccc3nc2n(Cc2ccco2)c1=NC(=O)c1ccc(OC)cc1OC 66.1%
CN(C)c1nc(=NCc2ccco2)ss1 67.8%
COc1ccc(N2C(=O)N(Cc3cccc(F)c3)c3ccccc3S2(=O)=O)cc1 55.6%
O=C(N/N=C/c1sc(N2CCOCC2)nc1-c1ccccc1)c1cccc(S(=O)(=O)N2CCCC2)c1 51.1%

inhibition, inconclusive:
CC(=O)c1ccc(NC(=O)CC2Nc3cccc4cccc(c34)NC2=O)cc1 (configuration not stated) 86.3%
CC1CCC(NC(=O)CC2Oc3ccccc3NC2=O)CC1 (configuration not stated) 65.3%
C[N+]1(C)CC2([N+](=O)[O-])CC=C(Oc3ccccc3)C([N+](=O)[O-])(C2)C1 (configuration not stated) 50.1%
Cc1ccc2c(c1)[nH]c1c(=O)n(Cc3ccccn3)cnc12 57.4%
O=C(NNC(=O)c1ccccc1[N+](=O)[O-])c1ccccn1 57%
CNC(=O)c1cc2ncc(C(F)(F)F)cc2s1 56.7%
Cc1ccc(OCC(=O)NNC(=O)c2cc3ccccc3o2)cc1 52.6%
CC(C)Nc1nc(Oc2cccc(Cl)c2Cl)cc(C(F)(F)F)n1 60.7%
O=c1cc2[nH]c3ccccc3c(=O)n2nc1-c1ccccc1 69.9%
O=C(CP(=O)(c1ccccc1)c1ccccc1)Nn1cnnc1 51.6%
Cc1ccc(C)c(OCC(=O)N/N=C\c2cccn2C)c1 53.6%
Cc1nn(-c2ccc(C(=O)Nc3nnc(C4CC4)s3)cc2)c(C)c1Cl 57.9%
COC(=O)[C@@H]1C2CCC(C(=O)Nc3ccccc3)(CC2)[C@@H]1C(=O)OC 54.5%
O=[N+]([O-])c1cc(F)c2cccnc2c1O 78.9%
Cc1ccc(Cn2cnc3ccccc32)cc1C 77.9%
CCc1ccc(OCC(=O)Nc2cc(S(=O)(=O)CC)ccc2O)cc1 55.3%
CCOCCCNC(=S)NCCNc1nc2c(C)cccc2cc1C#N 79.3%
Cc1ccc(S(=O)(=O)NCC(=O)OCC(=O)N2CCc3ccccc32)cc1 52.9%
COCCOC(=O)C1=C(C)NC(=O)NC1c1ccco1 (configuration not stated) 50.8%
O=C(Nc1ccccc1)c1ccc(Br)c(S(=O)(=O)Nc2ccccn2)c1 80.2%
Cn1c(C(=O)NCCC2=CCCCC2)cc2c(=O)n3ccccc3nc21 50.7%
CC1(C)CC2CC(C)(CN2C(=O)CCCN2C(=O)c3ccccc3C2=O)C1 (configuration not stated) 68.7%
O=C(Nc1ccc(F)cc1F)c1ccco1 68.5%
O=C(CN1CCN(c2ccccc2O)CC1)NC(=O)NCc1ccco1 59.8%
CC(=O)N1CCN(c2ccc(NC(=O)c3cc(Cl)ccc3Cl)cc2)CC1 58.5%
CCCCc1cc(=O)oc2c(CN(C)C)c(O)c(Cl)cc12 87%
Cc1cc(C)n(-c2cccc(F)n2)n1 54.2%
O=C(CCc1ccccc1)Nc1nc2ccc(S(=O)(=O)N3CCOCC3)cc2s1 94.6%
Cc1ccc(S(=O)(=O)CC(O)CN2CCCC2=O)cc1 (configuration not stated) 63.5%
CC1CN(S(=O)(=O)N2CCOCC2)CCN1S(=O)(=O)N1CCOCC1 (configuration not stated) 51.7%
CCN(Cc1ccccc1)C(=O)COC(=O)c1cnc(C)cn1 51.4%
Clc1cc(NCc2cccs2)ccc1N1CCOCC1 53.4%
COc1ccc2nc3cc(Cl)ccc3c(Nc3cc(CN4CCCC4)c(O)c(CN4CCCC4)c3)c2n1 69.9%
CCOc1cc(-c2nc(C)c(C(C)=O)n2O)ccc1OCC(=O)Nc1ccccc1 64.4%
CCc1ccc(-c2nc(CN3CCC(C(=O)N4CCN(c5ccccc5)CC4)CC3)c(C)o2)cc1 80.7%
O=C(NC(=S)Nc1ccc(NC(=O)c2ccccc2)cc1)c1ccc(F)cc1 73.5%
Nc1ccc2oc(-c3cccc(Br)c3)nc2c1 53.9%
CCc1nnc(NC(=O)CN2C(=O)/C(=C/c3cc(OC)c(OC)c(OC)c3)SC2=S)s1 50.4%
NC(=S)Cc1nc(-c2ccccc2)cs1 59%
CCc1ccc(NC(=O)c2cc(C)nn2-c2ccccc2)cc1 82.7%
COc1ccc(CCNC(=O)CN(C)S(=O)(=O)c2ccc3nc(C)sc3c2)cc1OC 52.3%
Fc1ccc2[nH]c3c(NCCN4CCOCC4)ncnc3c2c1 63%
O=C1CCCc2ccccc2N1Cc1ccc(Cl)cc1Cl 51.9%
CCCCC(=O)Nc1ccc2oc(-c3cccnc3)nc2c1 53.7%
O=C(NCc1ccc2c(c1)OCO2)c1ccc(Cl)nc1 51.4%
COc1cc(S(=O)(=O)N2CCN(c3ccccc3)CC2)ccc1F 78.5%
Cc1ccc(S(=O)(=O)CCC(=O)N2CCN(c3ccc([N+](=O)[O-])cc3)CC2)cc1 73.8%
O=C(CNS(=O)(=O)c1ccc(Br)s1)NCc1ccc(F)cc1 71.5%
Clc1ccc(CN2CCc3c([nH]c4ccccc34)C2)cc1Cl 86.4%
COC(=O)/C=C1\C(=O)N(c2nc3ccc(OC)cc3s2)C(=S)N1c1ccc(F)cc1 50.5%
CCOC(=O)c1cnc(-c2ccccc2)nc1Oc1ccc(C)cc1 50%
CC(=O)Nc1ccc(C2=NN(c3ccccc3)C(c3ccccc3)C2)cc1 (configuration not stated) 78.1%
Cc1cc(=O)oc2c1ccc1ccccc12 53.1%
Nc1ccccc1-c1nnc(-c2ccc(-c3ccccc3)cc2)o1 54.6%
COc1ccccc1C(=O)Nn1cnc2ccccc2c1=O 70.3%
CCCc1nnc(NC(=O)c2ccncc2)s1 56.9%
O=C(CCS(=O)(=O)c1cccc2nonc12)NCCc1ccccc1Cl 54.6%
CCOC(=O)Nc1ccc2nc(N3CCCCCC3)sc2c1 74.6%
COc1ccc(S(=O)(=O)N2CCOCC2)cc1C(=O)Nc1cc(C)on1 58.4%
O=C(Nc1ccccc1Sc1ccccc1)c1ccccc1 65.2%
O=C(CCN1CCc2ccccc2C1)Nc1ccccc1 53.5%
CCS(=O)(=O)c1ccc(O)c(NC(=O)COc2ccc(Cl)cc2)c1 69.5%
CCCCc1nnc(NC(=O)C(=O)OCC)s1 50.3%

19 entries already listed, sorted by number of heavy atoms, rising.
inhibition, inconclusive:
Cc1cc(C)n(-c2cccc(F)n2)n1 54.2%
NC(=S)Cc1nc(-c2ccccc2)cs1 59%
O=C(Nc1ccc(F)cc1F)c1ccco1 68.5%
Nc1ccc2oc(-c3cccc(Br)c3)nc2c1 53.9%
Cc1ccc(Cn2cnc3ccccc32)cc1C 77.9%
Clc1cc(NCc2cccs2)ccc1N1CCOCC1 53.4%
O=C(CCN1CCc2ccccc2C1)Nc1ccccc1 53.5%
Cc1ccc2c(c1)[nH]c1c(=O)n(Cc3ccccn3)cnc12 57.4%
CCN(Cc1ccccc1)C(=O)COC(=O)c1cnc(C)cn1 51.4%
Nc1ccccc1-c1nnc(-c2ccc(-c3ccccc3)cc2)o1 54.6%
CC1CN(S(=O)(=O)N2CCOCC2)CCN1S(=O)(=O)N1CCOCC1 (configuration not stated) 51.7%
Cn1c(C(=O)NCCC2=CCCCC2)cc2c(=O)n3ccccc3nc21 50.7%
Cc1ccc(S(=O)(=O)NCC(=O)OCC(=O)N2CCc3ccccc32)cc1 52.9%
CC(=O)c1ccc(NC(=O)CC2Nc3cccc4cccc(c34)NC2=O)cc1 (configuration not stated) 86.3%
Cc1ccc(S(=O)(=O)CCC(=O)N2CCN(c3ccc([N+](=O)[O-])cc3)CC2)cc1 73.8%
COC(=O)/C=C1\C(=O)N(c2nc3ccc(OC)cc3s2)C(=S)N1c1ccc(F)cc1 50.5%
COc1ccc(CCNC(=O)CN(C)S(=O)(=O)c2ccc3nc(C)sc3c2)cc1OC 52.3%
CCc1ccc(-c2nc(CN3CCC(C(=O)N4CCN(c5ccccc5)CC4)CC3)c(C)o2)cc1 80.7%
COc1ccc2nc3cc(Cl)ccc3c(Nc3cc(CN4CCCC4)c(O)c(CN4CCCC4)c3)c2n1 69.9%

Following part.

inhibition, inactive:
O=C(NNc1nc(-c2ccccc2)cs1)c1ccc(F)cc1 60%
COC(=O)N1CC(c2ccccc2)CC1=O (configuration not stated) -7.4%
O=C(/C=C/c1ccc2c(c1)OCO2)Nc1nc(-c2ccccc2)cs1 26%
CCOC(=O)c1cnn(-c2nc(-c3ccccc3)nc3c2COC(C)(C)C3)c1N -0.5%
O=C(COC(=O)CCC(=O)c1cccs1)NCc1cccs1 -3.4%
O=c1cnnc(Nc2cccc(C(F)(F)F)c2)[nH]1 2.4%
Cc1ccc(S(=O)(=O)N2CCN(S(=O)(=O)c3ccccc3)C2)cc1 -0.6%
N#CC1=C(N)Nc2ncnn2C1c1ccc([N+](=O)[O-])cc1 (configuration not stated) -11.4%
COCc1c(C(=O)OCC(=O)NCCN2C(=O)CSC2=O)oc2ccccc12 1.8%
CCCN(CCC)CCCNC(=O)C1CCN(S(=O)(=O)c2cccc3nsnc23)CC1 -0.6%
C[C@H]1c2cccc(O)c2C(O)=C2C(=O)[C@]3(O)C(O)=C(C(N)=O)C(=O)[C@@H](N(C)C)[C@@H]3[C@@H](O)[C@@H]21 13.4%
O=C(O/N=C(\c1ccccc1)c1ccncc1)c1ccccc1F -7.6%
COCCCNC(=O)Cn1nnc(-c2ccc(NC(=O)c3ccc(F)cc3)cc2)n1 25.2%
COc1ccc(N2CCN(C(=O)c3ccc4c(=O)n5c(nc4c3)CCCCC5)CC2)cc1 -6.5%
CCc1c(C(C)S(=O)(=O)c2ccccc2)[nH]c(=O)n1CC (configuration not stated) -7.8%
Cc1ccc2nc(NC(=O)CN3CCOCC3)sc2c1 -0.6%
CCOC(=O)C1=C(Cc2ccc(F)cc2)C(=O)c2ccccc2C1=O 76%
N#CC1=C2SCN(Cc3ccccc3)CN2C(=O)CC1c1ccccc1F (configuration not stated) 85.9%
COc1ccc(Cl)cc1NC(=O)c1ccc2c(SCC(=O)O)c3c(nc2c1)CCCC3 12.3%
Cc1cc(C)c(NC(=O)CN2CCN(c3ccccn3)CC2)c(C)c1 -1.2%
Cc1cccc(Oc2sc(C(=O)c3ccccc3)c(N)c2C#N)c1C 4.2%
CC(=O)Nc1ccc(S(=O)(=O)N2CCOCC2)cc1 11.4%
CCn1c(SCC(=O)Nc2cc(C)on2)nnc1-c1ccc(S(=O)(=O)N2CCCC2)cc1 0.3%
CCn1c(SCC(=O)NNC(=O)c2ccc(C)cc2)nnc1C1CC1 7.6%

From PubChem BioAssay AID2073 (Sanford-Burnham Center for Chemical Genomics, 2009)
